PubChem BioAssay AID743454 | Peter MacCallum Cancer Centre – 2014
Aim: 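Search for knock-downs that restore vorinostat killing in resistant colon cancer cells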 (primary screen). Cells: human HCT116-VR colon cancer cells, selected for vorinostat resistance. Knock-down reagent: siRNA pool against human genes, 40 nM siRNA pool. Time to read-out: vorinostat for 24 h, read-out about 72 h after transfection. Challenge: vorinostat at 2.5 µM final. Measured: 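Two measures, CellTiter-Fluor viability and luminescent caspase 3/7 activity, each as fold change against same-plate mock wells, mean of duplicates, then screen-wide robust z-score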. Direction: viability robust z-score: higher = more viable cells than screen typical; caspase robust z-score: higher = more caspase 3/7 activity than screen typical. Active means: 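a knock-down is a hit when classed RV1 or RV2 for lowered viability, or CA1 or CA2 for caspase activation; those lethal without drug were dropped; hits were retested singly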.
Here is an unselected part of about 18,000 reagents tested. Over the whole deposit, 450 (2.5%) were called active. 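Single biological run; no consistent viability z cut-off exists, so the class columns, not z-scores, define the calls.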 Unmarked entries are inactive. No sequences are given here.

| gene | viability hit class | caspase hit class | viability robust z-score | caspase robust z-score |
| --- | --- | --- | --- | --- |
| ASXL2 (GeneID 55252) | no change | no change | 1.12 | 0.28 |
| GP6 (GeneID 51206) | no change | no change | 0.68 | 0.3 |
| TTC16 (GeneID 158248) | no change | no change | 1.06 | -0.04 |
| CRADD (GeneID 8738) | no change | no change | -2.32 | 4.75 |
| SEC11C (GeneID 90701) | no change | no change | 0.62 | 0.79 |
| CMKLR2 (GeneID 2825) | no change | no change | -1.61 | 0.61 |
| SULT1C4 (GeneID 27233) | no change | no change | 1.31 | -0.63 |
| PPP1R13B (GeneID 23368) | no change | no change | 1.09 | -0.55 |
| MYH6 (GeneID 4624) | no change | no change | -0.56 | -0.5 |
| DDA1 (GeneID 79016) | no change | no change | 0.39 | 0.02 |
| NMNAT1 (GeneID 64802) | no change | no change | -0.6 | 1.78 |
| MXRA8 (GeneID 54587) | no change | no change | 1.47 | -0.5 |
| CRCP (GeneID 27297) | no change | no change | 0.78 | 0.22 |
| MON1A (GeneID 84315) | no change | no change | 0.16 | 1.89 |
| ACVR1C (GeneID 130399) | no change (active) | CA1 (caspase activation) | 0.14 | 5.46 |
| CCDC91 (GeneID 55297) | no change | no change | 0.77 | 0.76 |
| FANCA (GeneID 2175) | no change (active) | CA1 (caspase activation) | -2.17 | 9.66 |
| PPP1R1A (GeneID 5502) | no change | no change | -0.54 | 0.4 |
| PSAT1 (GeneID 29968) | no change | no change | -0.09 | -0.92 |
| SGCD (GeneID 6444) | no change | no change | 1.2 | 0.23 |
| TIPE3 (GeneID 388121) | no change | no change | 0.24 | 0.33 |
| RAMAC (GeneID 83640) | no change | no change | 1.06 | 0.48 |
| GPR155 (GeneID 151556) | no change | no change | 0.74 | -0.57 |

4 entries from above, set out differently:
TTC16 (GeneID 158248)
- viability hit class: no change
- caspase hit class: no change
- viability robust z-score: 1.06
- caspase robust z-score: -0.04

CRADD (GeneID 8738)
- viability hit class: no change
- caspase hit class: no change
- viability robust z-score: -2.32
- caspase robust z-score: 4.75

SEC11C (GeneID 90701)
- viability hit class: no change
- caspase hit class: no change
- viability robust z-score: 0.62
- caspase robust z-score: 0.79

CMKLR2 (GeneID 2825)
- viability hit class: no change
- caspase hit class: no change
- viability robust z-score: -1.61
- caspase robust z-score: 0.61
